{
  "sequences": {"note": "Amino acid sequences for entries named in this document (tags omitted).", "UniProt Q93008": "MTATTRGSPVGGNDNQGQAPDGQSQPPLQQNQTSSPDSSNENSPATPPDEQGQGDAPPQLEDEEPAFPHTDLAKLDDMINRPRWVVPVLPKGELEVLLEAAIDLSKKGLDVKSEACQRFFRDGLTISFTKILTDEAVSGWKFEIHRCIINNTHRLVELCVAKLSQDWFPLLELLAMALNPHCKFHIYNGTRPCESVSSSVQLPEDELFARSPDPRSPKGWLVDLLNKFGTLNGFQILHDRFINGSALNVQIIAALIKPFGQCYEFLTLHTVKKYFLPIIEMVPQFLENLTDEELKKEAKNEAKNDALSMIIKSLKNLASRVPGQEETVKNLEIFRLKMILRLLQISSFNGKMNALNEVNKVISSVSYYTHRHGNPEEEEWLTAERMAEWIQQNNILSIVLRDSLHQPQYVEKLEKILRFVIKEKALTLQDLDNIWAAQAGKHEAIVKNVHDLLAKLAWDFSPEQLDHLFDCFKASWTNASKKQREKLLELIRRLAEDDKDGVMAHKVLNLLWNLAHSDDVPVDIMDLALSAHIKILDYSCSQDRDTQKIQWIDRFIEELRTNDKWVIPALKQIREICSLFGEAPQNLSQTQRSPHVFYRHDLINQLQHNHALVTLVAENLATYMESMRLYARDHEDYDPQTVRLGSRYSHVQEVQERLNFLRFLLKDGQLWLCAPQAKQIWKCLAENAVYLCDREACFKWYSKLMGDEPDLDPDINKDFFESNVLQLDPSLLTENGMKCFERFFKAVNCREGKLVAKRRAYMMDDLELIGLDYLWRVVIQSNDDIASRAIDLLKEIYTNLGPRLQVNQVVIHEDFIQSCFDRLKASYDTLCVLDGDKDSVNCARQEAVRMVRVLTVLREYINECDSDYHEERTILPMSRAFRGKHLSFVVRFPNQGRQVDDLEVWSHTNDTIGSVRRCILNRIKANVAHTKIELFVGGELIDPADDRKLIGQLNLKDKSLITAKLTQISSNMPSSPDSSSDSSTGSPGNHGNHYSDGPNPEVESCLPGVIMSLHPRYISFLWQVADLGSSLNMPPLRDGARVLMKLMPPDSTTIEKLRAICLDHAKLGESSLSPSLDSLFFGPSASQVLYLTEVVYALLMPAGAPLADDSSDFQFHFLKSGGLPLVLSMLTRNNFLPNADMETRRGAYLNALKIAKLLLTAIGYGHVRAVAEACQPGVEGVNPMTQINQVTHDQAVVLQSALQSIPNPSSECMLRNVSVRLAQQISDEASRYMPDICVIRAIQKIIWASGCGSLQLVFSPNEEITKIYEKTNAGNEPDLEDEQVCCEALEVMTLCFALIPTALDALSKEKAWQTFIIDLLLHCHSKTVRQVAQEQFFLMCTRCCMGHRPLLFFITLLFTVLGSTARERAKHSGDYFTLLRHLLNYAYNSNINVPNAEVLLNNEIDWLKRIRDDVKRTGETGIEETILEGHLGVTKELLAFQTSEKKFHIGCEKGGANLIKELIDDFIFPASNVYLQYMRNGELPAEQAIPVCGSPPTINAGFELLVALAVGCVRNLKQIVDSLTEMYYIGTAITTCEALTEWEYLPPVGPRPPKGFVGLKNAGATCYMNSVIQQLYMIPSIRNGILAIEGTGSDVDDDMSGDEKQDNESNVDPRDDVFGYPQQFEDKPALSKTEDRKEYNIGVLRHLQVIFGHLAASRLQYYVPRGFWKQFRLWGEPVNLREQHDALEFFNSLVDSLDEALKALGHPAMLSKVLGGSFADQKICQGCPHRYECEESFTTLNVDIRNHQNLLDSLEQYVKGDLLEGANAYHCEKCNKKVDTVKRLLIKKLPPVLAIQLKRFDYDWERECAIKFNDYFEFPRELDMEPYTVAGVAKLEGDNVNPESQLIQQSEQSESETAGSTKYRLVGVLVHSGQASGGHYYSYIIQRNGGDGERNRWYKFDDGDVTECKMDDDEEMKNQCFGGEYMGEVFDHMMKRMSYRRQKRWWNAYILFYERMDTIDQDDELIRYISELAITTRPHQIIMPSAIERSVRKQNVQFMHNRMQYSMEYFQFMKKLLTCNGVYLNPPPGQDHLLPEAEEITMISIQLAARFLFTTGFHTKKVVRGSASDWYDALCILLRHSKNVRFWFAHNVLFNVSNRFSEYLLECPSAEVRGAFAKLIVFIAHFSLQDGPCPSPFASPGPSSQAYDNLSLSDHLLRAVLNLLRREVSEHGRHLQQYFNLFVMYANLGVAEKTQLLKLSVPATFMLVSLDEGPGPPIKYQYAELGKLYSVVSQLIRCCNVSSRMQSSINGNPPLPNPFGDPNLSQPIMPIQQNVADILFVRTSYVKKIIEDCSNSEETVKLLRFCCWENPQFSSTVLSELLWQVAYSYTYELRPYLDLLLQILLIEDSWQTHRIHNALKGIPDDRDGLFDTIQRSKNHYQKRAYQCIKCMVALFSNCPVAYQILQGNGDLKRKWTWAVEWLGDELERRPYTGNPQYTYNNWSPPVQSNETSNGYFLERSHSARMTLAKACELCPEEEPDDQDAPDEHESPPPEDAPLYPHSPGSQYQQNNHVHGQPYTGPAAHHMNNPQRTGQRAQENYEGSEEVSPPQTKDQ", "UniProt P49792": "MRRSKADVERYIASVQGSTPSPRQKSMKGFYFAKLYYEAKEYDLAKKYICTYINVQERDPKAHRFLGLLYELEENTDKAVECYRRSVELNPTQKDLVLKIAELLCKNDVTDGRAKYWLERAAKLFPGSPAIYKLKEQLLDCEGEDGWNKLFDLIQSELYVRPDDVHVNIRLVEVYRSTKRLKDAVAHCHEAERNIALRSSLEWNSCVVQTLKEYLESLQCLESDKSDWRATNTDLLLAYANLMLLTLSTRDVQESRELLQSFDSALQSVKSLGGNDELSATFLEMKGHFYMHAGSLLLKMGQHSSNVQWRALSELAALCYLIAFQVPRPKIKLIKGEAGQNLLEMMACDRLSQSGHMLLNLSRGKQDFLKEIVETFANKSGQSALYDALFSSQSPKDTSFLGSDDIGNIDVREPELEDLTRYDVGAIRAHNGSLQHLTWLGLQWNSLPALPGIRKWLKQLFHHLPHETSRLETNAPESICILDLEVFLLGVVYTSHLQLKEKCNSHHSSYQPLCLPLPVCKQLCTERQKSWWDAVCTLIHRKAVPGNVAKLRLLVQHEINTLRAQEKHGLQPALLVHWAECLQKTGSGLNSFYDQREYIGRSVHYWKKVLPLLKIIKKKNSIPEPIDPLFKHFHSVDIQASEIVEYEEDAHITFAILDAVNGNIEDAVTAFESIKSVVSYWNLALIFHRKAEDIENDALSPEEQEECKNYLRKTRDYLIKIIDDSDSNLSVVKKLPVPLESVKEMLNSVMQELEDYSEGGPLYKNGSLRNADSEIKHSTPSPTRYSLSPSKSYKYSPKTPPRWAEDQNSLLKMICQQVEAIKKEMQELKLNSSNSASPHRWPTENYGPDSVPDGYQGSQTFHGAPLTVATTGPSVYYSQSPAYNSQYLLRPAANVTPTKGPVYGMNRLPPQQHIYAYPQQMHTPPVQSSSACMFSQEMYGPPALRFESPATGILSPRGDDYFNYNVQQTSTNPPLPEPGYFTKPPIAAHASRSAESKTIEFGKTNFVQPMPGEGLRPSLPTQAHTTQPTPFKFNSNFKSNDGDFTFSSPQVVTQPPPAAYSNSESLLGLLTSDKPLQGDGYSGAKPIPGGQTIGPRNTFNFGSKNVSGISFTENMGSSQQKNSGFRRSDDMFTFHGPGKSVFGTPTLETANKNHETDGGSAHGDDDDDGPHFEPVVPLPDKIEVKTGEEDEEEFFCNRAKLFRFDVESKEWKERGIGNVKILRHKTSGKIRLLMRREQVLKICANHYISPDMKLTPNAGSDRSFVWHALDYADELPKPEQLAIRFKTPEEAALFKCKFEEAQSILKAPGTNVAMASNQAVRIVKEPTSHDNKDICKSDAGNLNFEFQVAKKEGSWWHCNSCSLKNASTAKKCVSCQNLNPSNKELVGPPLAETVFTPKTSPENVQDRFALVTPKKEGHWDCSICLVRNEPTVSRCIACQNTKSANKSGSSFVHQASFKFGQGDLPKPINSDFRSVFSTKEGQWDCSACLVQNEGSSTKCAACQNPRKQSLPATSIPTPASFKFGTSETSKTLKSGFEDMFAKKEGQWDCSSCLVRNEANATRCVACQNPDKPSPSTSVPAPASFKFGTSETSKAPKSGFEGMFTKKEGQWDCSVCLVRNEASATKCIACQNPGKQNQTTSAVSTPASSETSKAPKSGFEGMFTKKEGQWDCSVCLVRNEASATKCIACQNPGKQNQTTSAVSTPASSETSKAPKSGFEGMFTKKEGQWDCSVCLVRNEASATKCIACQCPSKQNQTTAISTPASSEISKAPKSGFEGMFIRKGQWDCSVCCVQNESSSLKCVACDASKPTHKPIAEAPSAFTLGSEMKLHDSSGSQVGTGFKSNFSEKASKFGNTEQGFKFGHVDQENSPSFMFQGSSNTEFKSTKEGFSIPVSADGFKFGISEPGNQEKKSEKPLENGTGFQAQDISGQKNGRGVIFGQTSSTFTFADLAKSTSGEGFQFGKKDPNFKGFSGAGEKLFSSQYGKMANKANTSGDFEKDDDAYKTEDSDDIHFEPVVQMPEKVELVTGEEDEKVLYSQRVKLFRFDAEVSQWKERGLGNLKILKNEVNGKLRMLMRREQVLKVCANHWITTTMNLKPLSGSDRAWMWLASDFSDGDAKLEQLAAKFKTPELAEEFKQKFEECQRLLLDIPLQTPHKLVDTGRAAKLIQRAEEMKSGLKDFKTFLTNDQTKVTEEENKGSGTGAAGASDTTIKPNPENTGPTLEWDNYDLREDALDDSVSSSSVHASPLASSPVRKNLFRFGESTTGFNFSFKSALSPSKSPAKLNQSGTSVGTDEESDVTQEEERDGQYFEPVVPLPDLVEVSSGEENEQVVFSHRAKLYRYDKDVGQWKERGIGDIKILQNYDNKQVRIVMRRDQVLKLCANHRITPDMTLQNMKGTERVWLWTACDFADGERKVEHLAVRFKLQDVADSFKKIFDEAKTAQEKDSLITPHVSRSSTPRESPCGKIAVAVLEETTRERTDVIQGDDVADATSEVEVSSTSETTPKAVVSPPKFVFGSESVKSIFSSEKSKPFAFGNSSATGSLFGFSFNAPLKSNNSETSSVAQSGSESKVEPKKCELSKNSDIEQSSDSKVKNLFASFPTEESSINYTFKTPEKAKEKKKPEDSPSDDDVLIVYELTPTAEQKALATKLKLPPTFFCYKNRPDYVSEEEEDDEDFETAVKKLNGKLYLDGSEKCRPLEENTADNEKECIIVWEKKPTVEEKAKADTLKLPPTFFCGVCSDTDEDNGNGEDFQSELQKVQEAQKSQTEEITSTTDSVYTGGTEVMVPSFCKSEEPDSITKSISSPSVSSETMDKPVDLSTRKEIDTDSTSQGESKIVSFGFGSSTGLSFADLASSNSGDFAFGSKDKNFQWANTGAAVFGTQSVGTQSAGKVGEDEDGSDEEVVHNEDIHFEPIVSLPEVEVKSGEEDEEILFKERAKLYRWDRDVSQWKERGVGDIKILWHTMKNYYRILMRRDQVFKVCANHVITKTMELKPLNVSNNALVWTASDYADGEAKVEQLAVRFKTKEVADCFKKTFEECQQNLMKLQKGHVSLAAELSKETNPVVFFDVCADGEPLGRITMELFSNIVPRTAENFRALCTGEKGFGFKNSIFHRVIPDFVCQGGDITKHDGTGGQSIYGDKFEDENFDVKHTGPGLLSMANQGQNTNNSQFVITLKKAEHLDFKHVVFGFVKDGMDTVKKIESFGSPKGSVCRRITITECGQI"},
  "source": "paper PMC9242475",
  "binders": {"B1": {"name": "HAdV-C5 viral protein IIIa in infected cells (protein, UniProt P12537 1-570)", "chain": "MMQDATDPAVRAALQSQPSGLNSTDDWRQVMDRIMSLTARNPDAFRQQPQANRLSAILEAVVPARANPTHEKVLAIVNALAENRAIRPDEAGLVYDALLQRVARYNSGNVQTNLDRLVGDVREAVAQRERAQQQGNLGSMVALNAFLSTQPANVPRGQEDYTNFVSALRLMVTETPQSEVYQSGPDYFFQTSRQGLQTVNLSQAFKNLQGLWGVRAPTGDRATVSSLLTPNSRLLLLLIAPFTDSGSVSRDTYLGHLLTLYREAIGQAHVDEHTFQEITSVSRALGQEDTGSLEATLNYLLTNRRQKIPSLHSLNSEEERILRYVQQSVSLNLMRDGVTPSVALDMTARNMEPGMYASNRPFINRLMDYLHRAAAVNPEYFTNAILNPHWLPPPGFYTGGFEVPEGNDGFLWDDIDDSVFSPQPQTLLELQQREQAEAALRKESFRRPSSLSDLGAAAPRSDASSPFPSLIGSLTSTRTTRPRLLGEEEYLNNSLLQPQREKNLPPAFPNNGIESLVDKMSRWKTYAQEHRDVPGPRPPTRRQRHDRQRGLVWEDDDSADDSSVLDLGGS"}},
  "key": {"[1]": {"target": "ubiquitin-specific protease 9x (human (endogenous in HEK293)) (UniProt Q93008)", "assay": "co-IP"}, "[2]": {"target": "Ran-binding protein 2 (human (endogenous in HEK293)) (UniProt P49792)", "assay": "co-IP"}},
  "note": "No constants are given. Whether binding was seen depends on the method and setting. Binding seen in cells or lysates may run through a third protein. Some binding calls cover weakened binding; strength is not graded here.",
  "data": [
    {"binder": "B1", "values": [
      {"measurement": "binding", "setting": "[1]", "value": "binds"},
      {"measurement": "binding", "setting": "[2]", "value": "binds"}
    ]}
  ]
}
